At least one compound was matched to its structure with a doubt left.
System: normal i-Hep
Experiment: Endogenous (de novo) TCA synthesis, secretion and intracellular TCA in Transwell culture, LC-MS

For `CC[C@H]1[C@@H](O)[C@@H]2[C@H](CC[C@]3(C)[C@@H]([C@H](C)CCC(=O)O)CC[C@@H]23)[C@@]2(C)CC[C@@H](O)C[C@@H]12` [Obeticholic acid, obeticholic acid], the “intracellular TCA (cell lysate)” value (with vs without OCA) was “suppressed” and the “endogenous (de novo) synthesis of TCA, secreted into upper and lower chambers” value (with vs without OCA 10 μM) was “suppressed”.

From patent US20230201222A1, “ALLEVIATION OF LIVER INJURY BY ACTIVATING THE SIGNALING PATHWAY MEDIATED BY FARNESOID X RECEPTOR” (CHILDREN'S HOSPITAL MEDICAL CENTER, priority 2020, published 2023)
